Measured values as given in US4812312A, “Liposome-incorporated nystatin” (Board of Regents of the University of Texas System, priority 1987, dated 1989).
At least one compound was matched to its structure with a doubt left.

Test system: mice
Experiment: In vivo toxicology in Hale-Stoner mice
Conditions: as worded
Method: Groups of eight Hale-Stoner mice (6-8 weeks old, body wt=20-25 g; Univ. of TX Science Park, Bastrop, TX) each were injected with various doses of free-Nys (in 5% DMSO diluted with saline), L-Nys, empty liposomes or 5% DMSO as control. […] After 45 days, the surviving animals were sacrificed and blood and tissue samples were obtained. Blood biochemistry examination included blood urea nitrogen, alkaline phosphatase, and lactic dehydrogenase (LDH). The organs (liver, spleen, lungs and kidneys) were obtained and preserved in 10% formalin. Tissue slices were processed for hematoxylin-eosin and Gomori methenamine silver stains.

## C[C@@H]1[C@H](O)[C@@H](C)/C=C/C=C/CC/C=C/C=C/C=C/C=C/C(O[C@H]2O[C@H](C)[C@@H](O)[C@H](N)[C@@H]2O)CC2O[C@](O)(CC(O)C(O)CCC(O)CC(O)CC(O)CC(=O)O[C@H]1C)CC(O)C2C(=O)O (stereo partly shown) [free-Nys, nystatin]
  mean toxic dose (MTD): 4 mg/kg
